Measured values as given in paper PMC3448962 (Biochemical pharmacology, 2012).

Test system: human AGP
Assay: Fluorometric probe displacement assay

## CN1C(=O)CN=C(c2ccccc2)c2cc(Cl)ccc21 [Diazepam]
human, pH 7.4, Ki, displacement of ANS, probe ANS, 20°C, mean ± SE, n = 3 unless otherwise indicated, ND = not detected
  Ki at 2 min: 3.13 ± 0.06 µM
Probe BODIPY-PL2
  displacement of BODIPY-PL2 from AGP: able to compete with BODIPY-PL2
